Test results: patent US20200157226A1 (DRAGONFLY THERAPEUTICS, published 2020)
These are yes or no findings as the source states them, for the method shown. Some results given as binding are weak or reduced against the parent protein; the word gives no strength.

Sequences of proteins named here, by UniProt entry; tags and fusion partners are left off. A change or cut given only in a name is not applied to a line headed by its entry.
UniProt P26718: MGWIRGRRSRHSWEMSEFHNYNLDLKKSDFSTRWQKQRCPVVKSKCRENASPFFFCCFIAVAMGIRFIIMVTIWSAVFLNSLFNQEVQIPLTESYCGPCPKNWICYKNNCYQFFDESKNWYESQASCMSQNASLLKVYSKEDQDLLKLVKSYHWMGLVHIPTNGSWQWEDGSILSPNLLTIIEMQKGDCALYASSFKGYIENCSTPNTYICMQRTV

T1: 5T4 expressed on human cancer cell lines (human, UniProt Q13641 32-420)
T1 construct: the assays used endogenous 5T4 on BxPC3, H146, H1975, HCT116, MCF7 and N87 cells; also called tumor-associated 5T4 antigen; human trophoblast glycoprotein 5T4
T1 sequence: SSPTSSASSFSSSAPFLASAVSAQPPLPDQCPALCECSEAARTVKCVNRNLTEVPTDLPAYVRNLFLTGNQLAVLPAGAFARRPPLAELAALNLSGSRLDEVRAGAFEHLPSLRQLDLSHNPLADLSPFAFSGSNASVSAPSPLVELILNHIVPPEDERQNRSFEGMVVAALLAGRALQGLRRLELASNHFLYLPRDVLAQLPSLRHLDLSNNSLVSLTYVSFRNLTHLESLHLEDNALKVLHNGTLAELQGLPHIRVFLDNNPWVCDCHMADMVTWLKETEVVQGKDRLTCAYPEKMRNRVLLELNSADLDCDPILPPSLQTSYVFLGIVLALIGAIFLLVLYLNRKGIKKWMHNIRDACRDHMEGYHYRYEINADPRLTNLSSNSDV


Key:
[1] = molecular target: human NKG2D expressed on cells (primary human NK cells; EL4 mouse lymphoma cell lines engineered to express human NKG2D) (human) (UniProt P26718); test: flow cytometry on primary human NK cells
[2] = molecular target: T1, 5T4 expressed on human cancer cell lines; test: flow cytometry on N87 cells
[3] = molecular target: T1, 5T4 expressed on human cancer cell lines; test: flow cytometry on BxPC3 cells
Procedure: (§1) Human cancer cell lines (BxPC3, H146, H1975, HCT116, MCF7 and N87) expressing the tumor-associated 5T4 antigen were used to assay the binding of 5T4-targeting TriNKETs to the antigen. In separate experiments, the TriNKETs or the parental anti-5T4 monoclonal antibodies were incubated with the each of the cell lines, and the binding of the TriNKETs or anti-5T4 monoclonal antibodies to the cells was detected using fluorophore-conjugated anti-human IgG secondary antibodies. Flow cytometry was used to analyze the binding of the TriNKETs or anti-5T4 monoclonal antibodies to the cells, and fold-over-background (FOB) was calculated by normalizing the mean fluorescence intensity (MFI) to human recombinant IgG1 staining control.

[4] = molecular target: T1, 5T4 expressed on human cancer cell lines; test: flow cytometry on BxPC3, H146, H1975, HCT116, MCF7 and N87 cells
[5] = molecular target: human NKG2D expressed on cells (primary human NK cells; EL4 mouse lymphoma cell lines engineered to express human NKG2D) (human) (UniProt P26718); test: flow cytometry on EL4 cells expressing human NKG2D
[6] = molecular target: T1, 5T4 expressed on human cancer cell lines; test: flow cytometry on 5T4-expressing human cancer cell lines
Procedure: as §1

| binding [1] | binding [2] | binding [3] | binding [4] | binding [5] | binding [6] | Binder |
| --- | --- | --- | --- | --- | --- | --- |
| binds | binds | binds | binds | binds | binds | A49-TriNKET-5T4R (bispecific antibody, V domains shown) VH 1: EVQLVESGGGLVKPGGSLRLSCAASGFTFSSYSMNWVRQAPGKGLEWVSSISSSSSYIYYADSVKGRFTISRDNAKNSLYLQMNSLRAEDTAVYYCARGAPMGAAAGWFDPWGQGTLVTVSS VL 1: DIQMTQSPSSVSASVGDRVTITCRASQGISSWLAWYQQKPGKAPKLLIYAASSLQSGVPSRFSGSGSGTDFTLTISSLQPEDFATYYCQQGVSFPRTFGGGTKVEIK VH 2: EVHLLESGGGLVHPGGSLRLSCAASGFTFRSDAMHWVRQAPGKGLEWVSGVSGSGGSPYYADSVKGRFTISRDDSKTTLYLQMNSLRAEDTAVYYCATGGSIAGSYYYYPMDVWGQGTTVTVSS VL 2: DIQMTQSPSSLSASVGDRVTITCQASQDISNYLNWYQQKPGKAPKLLIYAASTLQIGVPSRFSGSGSGTDFTFTISSLQPEDFATYYCQQANSFPLTFGGGTKVEIK |
| binds | binds | binds | binds | binds | – | A49-TriNKET-5T4A (bispecific antibody, V domains shown) VH 1: EVQLVESGGGLVKPGGSLRLSCAASGFTFSSYSMNWVRQAPGKGLEWVSSISSSSSYIYYADSVKGRFTISRDNAKNSLYLQMNSLRAEDTAVYYCARGAPMGAAAGWFDPWGQGTLVTVSS VL 1: DIQMTQSPSSVSASVGDRVTITCRASQGISSWLAWYQQKPGKAPKLLIYAASSLQSGVPSRFSGSGSGTDFTLTISSLQPEDFATYYCQQGVSFPRTFGGGTKVEIK VH 2: EVQLVESGGGLVQPGGSLRLSCAASGFTFSNYWMNWVRQAPGKGLEWVGEIRLKSDKYATYYAESVKGRFTISRDDSKNSLYLQMNNLKTEDTGVYYCARRRGYYGSAYGMDYWGQGTLVTVSS VL 2: DIQMTQSPSSLSASVGDRVTITCKASQDINSYLSWFQQKPGKAPKILIYRANRLVDGVPSRFSGSGSGKDFTFTISSLQPEDIATYYCLQYDFLPLTFGGGTKVEIK |
